From paper PMC2976706
No constants are given. Whether binding was seen depends on the method and setting. In cells and extracts the contact can be indirect. Some binding calls cover weakened binding; strength is not graded here. For part of these data: Tags and fused reporters may be left off the sequences shown.

T1: endogenous Orc1 (HeLa) (human (endogenous in HeLa)) (UniProt Q13415)
T1 sequence: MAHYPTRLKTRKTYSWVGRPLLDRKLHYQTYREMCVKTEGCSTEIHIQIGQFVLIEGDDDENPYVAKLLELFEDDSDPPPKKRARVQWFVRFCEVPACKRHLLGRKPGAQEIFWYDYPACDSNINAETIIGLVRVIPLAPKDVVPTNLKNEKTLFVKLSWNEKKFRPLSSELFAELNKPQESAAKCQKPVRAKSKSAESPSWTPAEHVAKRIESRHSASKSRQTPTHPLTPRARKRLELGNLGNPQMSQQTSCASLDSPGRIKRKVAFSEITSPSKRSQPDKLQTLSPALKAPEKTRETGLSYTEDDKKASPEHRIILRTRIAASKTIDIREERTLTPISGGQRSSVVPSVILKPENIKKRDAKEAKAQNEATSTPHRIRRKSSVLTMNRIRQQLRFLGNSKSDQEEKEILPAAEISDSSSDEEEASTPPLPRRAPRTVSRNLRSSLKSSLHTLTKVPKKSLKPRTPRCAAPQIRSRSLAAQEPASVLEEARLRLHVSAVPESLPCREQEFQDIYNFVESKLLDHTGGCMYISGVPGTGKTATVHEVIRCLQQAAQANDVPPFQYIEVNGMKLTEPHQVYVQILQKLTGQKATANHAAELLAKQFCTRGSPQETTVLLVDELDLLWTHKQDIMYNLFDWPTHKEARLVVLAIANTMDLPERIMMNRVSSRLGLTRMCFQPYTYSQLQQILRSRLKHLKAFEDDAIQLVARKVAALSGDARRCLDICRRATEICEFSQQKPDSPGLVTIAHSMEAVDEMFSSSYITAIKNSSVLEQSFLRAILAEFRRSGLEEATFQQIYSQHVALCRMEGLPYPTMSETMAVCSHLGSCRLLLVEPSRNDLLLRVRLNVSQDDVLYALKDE

T2: HA-tagged Orc1 (HeLa) (human) (UniProt Q13415)
T2 sequence: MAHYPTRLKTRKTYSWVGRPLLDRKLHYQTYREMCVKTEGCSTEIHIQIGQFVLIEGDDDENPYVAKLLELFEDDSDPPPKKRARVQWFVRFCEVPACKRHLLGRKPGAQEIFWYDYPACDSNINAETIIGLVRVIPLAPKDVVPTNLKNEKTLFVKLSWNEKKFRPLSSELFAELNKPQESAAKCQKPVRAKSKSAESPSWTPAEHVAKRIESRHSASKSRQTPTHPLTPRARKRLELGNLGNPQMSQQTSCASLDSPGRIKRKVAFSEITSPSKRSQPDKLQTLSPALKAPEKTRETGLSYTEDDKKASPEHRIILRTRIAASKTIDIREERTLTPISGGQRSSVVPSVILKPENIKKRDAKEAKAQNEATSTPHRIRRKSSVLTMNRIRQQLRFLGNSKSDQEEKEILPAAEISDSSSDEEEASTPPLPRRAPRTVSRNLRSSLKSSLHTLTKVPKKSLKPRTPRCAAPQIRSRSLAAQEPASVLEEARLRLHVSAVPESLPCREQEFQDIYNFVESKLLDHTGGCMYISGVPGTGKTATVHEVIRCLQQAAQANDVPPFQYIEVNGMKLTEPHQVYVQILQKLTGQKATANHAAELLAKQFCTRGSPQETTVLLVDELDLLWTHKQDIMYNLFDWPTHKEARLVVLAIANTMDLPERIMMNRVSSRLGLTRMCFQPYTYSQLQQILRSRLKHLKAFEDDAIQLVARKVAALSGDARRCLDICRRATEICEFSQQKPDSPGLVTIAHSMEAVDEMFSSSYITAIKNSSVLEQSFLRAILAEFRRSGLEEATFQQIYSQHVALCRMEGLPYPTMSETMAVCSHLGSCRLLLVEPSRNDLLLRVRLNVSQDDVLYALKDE

T3: wt HA-Orc1 (U2OS) (human) (UniProt Q13415)
T3 sequence: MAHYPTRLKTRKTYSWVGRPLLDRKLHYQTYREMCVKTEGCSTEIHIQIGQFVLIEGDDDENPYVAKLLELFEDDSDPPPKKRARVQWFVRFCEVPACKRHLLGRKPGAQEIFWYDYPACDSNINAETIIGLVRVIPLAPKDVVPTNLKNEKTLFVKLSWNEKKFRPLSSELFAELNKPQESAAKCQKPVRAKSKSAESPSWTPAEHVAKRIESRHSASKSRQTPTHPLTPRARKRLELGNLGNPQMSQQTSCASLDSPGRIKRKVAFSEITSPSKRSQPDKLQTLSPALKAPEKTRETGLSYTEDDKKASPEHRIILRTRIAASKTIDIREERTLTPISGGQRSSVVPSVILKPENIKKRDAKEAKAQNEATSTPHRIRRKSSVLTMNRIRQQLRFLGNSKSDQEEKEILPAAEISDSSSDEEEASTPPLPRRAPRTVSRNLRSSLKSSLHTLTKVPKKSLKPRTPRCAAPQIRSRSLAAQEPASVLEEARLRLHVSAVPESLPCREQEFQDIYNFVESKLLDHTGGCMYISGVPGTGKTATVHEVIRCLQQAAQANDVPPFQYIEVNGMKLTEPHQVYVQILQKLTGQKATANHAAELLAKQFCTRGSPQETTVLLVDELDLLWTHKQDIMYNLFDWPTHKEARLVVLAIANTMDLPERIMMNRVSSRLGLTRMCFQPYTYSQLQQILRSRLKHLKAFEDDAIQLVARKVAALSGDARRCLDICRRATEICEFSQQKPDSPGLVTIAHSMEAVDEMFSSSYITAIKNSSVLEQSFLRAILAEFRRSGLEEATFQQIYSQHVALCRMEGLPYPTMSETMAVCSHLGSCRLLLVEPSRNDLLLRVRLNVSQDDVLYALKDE


Key:
[1] = molecular target: T1, endogenous Orc1 (HeLa) (human (endogenous in HeLa)); assay: co-IP; endogenous proteins, lysates of asynchronous HeLa cells in HNNG buffer (15 mM Hepes pH 7.5, 250 mM NaCl, 1% NP-40, 5% glycerol), antibody overnight at 4 C, protein A/G beads, DNase I treated; western blot
[2] = molecular target: T2, HA-tagged Orc1 (HeLa) (human); assay: co-IP; anti-HA immunoprecipitation from HeLa cells transiently transfected with HA-Orc1; western blot for endogenous Rb
[3] = molecular target: T3, wt HA-Orc1 (U2OS) (human); assay: co-IP; anti-HA immunoprecipitation from U2OS cells transfected with wt HA-Orc1 or HA-Orc1 LPGRK; western blot for endogenous Rb

| binding [1] | binding [2] | binding [3] | Binder |
| --- | --- | --- | --- |
| binds | binds |  | endogenous Rb (HeLa) (protein, UniProt P06400 1-928) MPPKTPRKTAATAAAAAAEPPAPPPPPPPEEDPEQDSGPEDLPLVRLEFEETEEPDFTALCQKLKIPDHVRERAWLTWEKVSSVDGVLGGYIQKKKELWGICIFIAAVDLDEMSFTFTELQKNIEISVHKFFNLLKEIDTSTKVDNAMSRLLKKYDVLFALFSKLERTCELIYLTQPSSSISTEINSALVLKVSWITFLLAKGEVLQMEDDLVISFQLMLCVLDYFIKLSPPMLLKEPYKTAVIPINGSPRTPRRGQNRSARIAKQLENDTRIIEVLCKEHECNIDEVKNVYFKNFIPFMNSLGLVTSNGLPEVENLSKRYEEIYLKNKDLDARLFLDHDKTLQTDSIDSFETQRTPRKSNLDEEVNVIPPHTPVRTVMNTIQQLMMILNSASDQPSENLISYFNNCTVNPKESILKRVKDIGYIFKEKFAKAVGQGCVEIGSQRYKLGVRLYYRVMESMLKSEEERLSIQNFSKLLNDNIFHMSLLACALEVVMATYSRSTSQNLDSGTDLSFPWILNVLNLKAFDFYKVIESFIKAEGNLTREMIKHLERCEHRIMESLAWLSDSPLFDLIKQSKDREGPTDHLESACPLNLPLQNNHTAADMYLSPVRSPKKKGSTTRVNSTANAETQATSAFQTQKPLKSTSLSLFYKKVYRLAYLRLNTLCERLLSEHPELEHIIWTLFQHTLQNEYELMRDRHLDQIMMCSMYGICKVKNIDLKFKIIVTAYKDLPHAVQETFKRVLIKEEEYDSIIVFYNSVFMQRLKTNILQYASTRPPTLSPIPHIPRSPYKFPSSPLRIPGGNIYISPLKSPYKISEGLPTPTKMTPRSRILVSIGESFGTSEKFQKINQMVCNSDRVLKRSAEGSNPPKPLKKLRFDIEGSDEADGSKHLPGESKFQQKLAEMTSTRTRMQKQKMNDSMDTSNKEEK |
|  |  | binds | hypo-phosphorylated endogenous Rb (U2OS) (protein, UniProt P06400 1-928, hypo-phosphorylated form (sites not given)) MPPKTPRKTAATAAAAAAEPPAPPPPPPPEEDPEQDSGPEDLPLVRLEFEETEEPDFTALCQKLKIPDHVRERAWLTWEKVSSVDGVLGGYIQKKKELWGICIFIAAVDLDEMSFTFTELQKNIEISVHKFFNLLKEIDTSTKVDNAMSRLLKKYDVLFALFSKLERTCELIYLTQPSSSISTEINSALVLKVSWITFLLAKGEVLQMEDDLVISFQLMLCVLDYFIKLSPPMLLKEPYKTAVIPINGSPRTPRRGQNRSARIAKQLENDTRIIEVLCKEHECNIDEVKNVYFKNFIPFMNSLGLVTSNGLPEVENLSKRYEEIYLKNKDLDARLFLDHDKTLQTDSIDSFETQRTPRKSNLDEEVNVIPPHTPVRTVMNTIQQLMMILNSASDQPSENLISYFNNCTVNPKESILKRVKDIGYIFKEKFAKAVGQGCVEIGSQRYKLGVRLYYRVMESMLKSEEERLSIQNFSKLLNDNIFHMSLLACALEVVMATYSRSTSQNLDSGTDLSFPWILNVLNLKAFDFYKVIESFIKAEGNLTREMIKHLERCEHRIMESLAWLSDSPLFDLIKQSKDREGPTDHLESACPLNLPLQNNHTAADMYLSPVRSPKKKGSTTRVNSTANAETQATSAFQTQKPLKSTSLSLFYKKVYRLAYLRLNTLCERLLSEHPELEHIIWTLFQHTLQNEYELMRDRHLDQIMMCSMYGICKVKNIDLKFKIIVTAYKDLPHAVQETFKRVLIKEEEYDSIIVFYNSVFMQRLKTNILQYASTRPPTLSPIPHIPRSPYKFPSSPLRIPGGNIYISPLKSPYKISEGLPTPTKMTPRSRILVSIGESFGTSEKFQKINQMVCNSDRVLKRSAEGSNPPKPLKKLRFDIEGSDEADGSKHLPGESKFQQKLAEMTSTRTRMQKQKMNDSMDTSNKEEK |
